In patent publication CN111018985A:
Residue numbers refer to the chain shown, from its start. These are yes or no findings as the source states them, for the method shown. Some binding calls cover weakened binding; strength is not graded here. Each block holds one binder with its values, some of them ahead of it.

Chains of the proteins cited; added tags and fusions are not shown. Residues count along the entry.
UniProt P02769, residues 25-607: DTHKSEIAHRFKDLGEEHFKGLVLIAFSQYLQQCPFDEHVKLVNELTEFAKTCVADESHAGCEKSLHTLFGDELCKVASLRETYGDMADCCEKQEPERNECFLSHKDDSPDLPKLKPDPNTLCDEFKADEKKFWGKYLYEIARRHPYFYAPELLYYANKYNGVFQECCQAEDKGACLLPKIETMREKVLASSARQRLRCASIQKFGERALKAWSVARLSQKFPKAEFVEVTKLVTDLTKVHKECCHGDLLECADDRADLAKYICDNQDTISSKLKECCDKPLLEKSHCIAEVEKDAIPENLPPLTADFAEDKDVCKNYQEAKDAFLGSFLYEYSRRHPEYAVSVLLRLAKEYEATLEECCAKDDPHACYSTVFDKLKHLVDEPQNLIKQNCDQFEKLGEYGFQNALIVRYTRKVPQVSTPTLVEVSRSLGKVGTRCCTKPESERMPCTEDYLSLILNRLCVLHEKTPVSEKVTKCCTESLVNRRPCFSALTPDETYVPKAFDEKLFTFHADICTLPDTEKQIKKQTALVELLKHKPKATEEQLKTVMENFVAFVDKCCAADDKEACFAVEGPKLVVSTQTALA

Key:
牛血清白蛋白(BSA) (牛 (bovine)) [1] = molecular target: 牛血清白蛋白(BSA) (牛 (bovine)) (UniProt P02769); test: ELISA, crude extract on BSA-Biotin captured by neutravidin, anti-HA detection; positive if OD > 5x control
牛血清白蛋白(BSA) (牛 (bovine)) [2] = molecular target: 牛血清白蛋白(BSA) (牛 (bovine)) (UniProt P02769); test: ELISA, 100 ng BSA coated, purified VHH, HRP anti-HA, OD450

binding (牛血清白蛋白(BSA) (牛 (bovine)) [1]): binds | binding (牛血清白蛋白(BSA) (牛 (bovine)) [2]): binds
B1: 1A5 (VHH, not shown: small tags and cut ends)
VHH: QVQLQESGGGSVQAGGSLRLACAASGYTYSSSYMGWFRQAPGKEREGVAVIYTGGGRTYYADSVKGRFTVSRDNAKNTVYLQMNSLKPEDTAMYYCAADGSRRNWFSPLDPRKYNYWGQGTQVTVSS

binding (牛血清白蛋白(BSA) (牛 (bovine)) [1]): binds | binding (牛血清白蛋白(BSA) (牛 (bovine)) [2]): binds
B3: 2B9 (VHH, not shown: small tags and cut ends)
VHH: B1 VHH with S11L, A14P, G54S, F106Y

binding (牛血清白蛋白(BSA) (牛 (bovine)) [1]): binds | binding (牛血清白蛋白(BSA) (牛 (bovine)) [2]): binds
B6: 2C9 (VHH, not shown: small tags and cut ends)
VHH: B1 VHH with G54A, P108Q

binding (牛血清白蛋白(BSA) (牛 (bovine)) [1]): binds | binding (牛血清白蛋白(BSA) (牛 (bovine)) [2]): binds
B7: 2D2 (VHH, not shown: small tags and cut ends)
VHH: B1 VHH with G54S, F106Y

binding (牛血清白蛋白(BSA) (牛 (bovine)) [1]): binds | binding (牛血清白蛋白(BSA) (牛 (bovine)) [2]): binds
B9: 1C1 (VHH, not shown: small tags and cut ends)
VHH: QVQLQESGGGSVQAGGSLRLSCTASGFSLDDRDMGWYRQAPGNECELVSVIRSDGRTYYPDSVKGRFTISQDNAKRTLYLQMNSLKAEDTAVYYCAADPSRRYSDYGAPGCGFNYWGQGTQVTVSS

binding (牛血清白蛋白(BSA) (牛 (bovine)) [1]): binds | binding (牛血清白蛋白(BSA) (牛 (bovine)) [2]): binds
B10: 2C5 (VHH, not shown: small tags and cut ends)
VHH: B9 VHH with R56S, R76N, A87P, R102Y, N114H

binding (牛血清白蛋白(BSA) (牛 (bovine)) [1]): binds | binding (牛血清白蛋白(BSA) (牛 (bovine)) [2]): binds
B15: 2D6 (VHH, not shown: small tags and cut ends)
VHH: QVQLQESGGGSVQTGGSLRLSCAASGNSDGAWSMGWFRQAPGKEREGVAALYVFTGITYYAGSVKGRFTISQDKAKNTVYLQMNSLKPEDTAMYYCAAGTAFPTLNRNKYNYWGQGTQVTVSS

binding (牛血清白蛋白(BSA) (牛 (bovine)) [1]): binds | binding (牛血清白蛋白(BSA) (牛 (bovine)) [2]): binds
B16: 2A4 (VHH, not shown: small tags and cut ends)
VHH: QVQLQESGGGSVQAGGSLRLSCAASSYTGSVNYMAWFRQAPGKEREGVAAIYSGGGSTYYADSVKGRFTISRDNAKNTVYLQMNSLIPEDTATYYCASDQSRRSWFSPLVPGKYSLWGQGTQVTVSS

binding (牛血清白蛋白(BSA) (牛 (bovine)) [1]): binds | binding (牛血清白蛋白(BSA) (牛 (bovine)) [2]): binds
B17: 2A11 (VHH, not shown: small tags and cut ends)
VHH: QVQLQESGGGSVQAGGSLRLSCTASGFTLDDSDLGWYRQAPGNECELVSIIRRDGSPYHTYYPDSVKGRFTISQDNAKNTLYLQMNSLKPEDTAVYYCAADPSRYYSDYGAPGCGFNYWGQGTQVTVSS

binding (牛血清白蛋白(BSA) (牛 (bovine)) [1]): binds | binding (牛血清白蛋白(BSA) (牛 (bovine)) [2]): binds
B20: 2D10 (VHH, not shown: small tags and cut ends)
VHH: QVQLQESGGGSVQAGGSLRLSCAASEYTSSVTFMGWVRQAPGKEREGVATIYTVTGRTYYADSVKGRFTISQDKAKNTVYLQMDSLKPEDTAMYYCAATPFSLSKTTRLAKFGSLNENEYDLWGQGTQVTVSS

binding (牛血清白蛋白(BSA) (牛 (bovine)) [1]): binds | binding (牛血清白蛋白(BSA) (牛 (bovine)) [2]): binds
B21: 2D11 (VHH, not shown: small tags and cut ends)
VHH: B20 VHH with V54P, D84N

More lines, now with the values behind:

B2: 2B4 (VHH, not shown: small tags and cut ends)
VHH: B1 VHH with S11L, A14P, A21S, G54F, V70I, F106Y, P108Q, N115L
binding (牛血清白蛋白(BSA) (牛 (bovine)) [1]): binds | binding (牛血清白蛋白(BSA) (牛 (bovine)) [2]): binds

B4: 2A7 (VHH, not shown: small tags and cut ends)
VHH: B1 VHH with A21S, G54T, V70I, F106Y, P108Q
binding (牛血清白蛋白(BSA) (牛 (bovine)) [1]): binds | binding (牛血清白蛋白(BSA) (牛 (bovine)) [2]): binds

B5: 1A10 (VHH, not shown: small tags and cut ends)
VHH: B1 VHH with S11L, A21S, G54T, V70I, F106Y, P108Q
binding (牛血清白蛋白(BSA) (牛 (bovine)) [1]): binds | binding (牛血清白蛋白(BSA) (牛 (bovine)) [2]): binds

B8: 1B7 (VHH, not shown: small tags and cut ends)
VHH: B1 VHH with G16E, A21S, V70I, K76E, Q82R, F106Y
binding (牛血清白蛋白(BSA) (牛 (bovine)) [1]): binds | binding (牛血清白蛋白(BSA) (牛 (bovine)) [2]): binds

B11: 1C3 (VHH, not shown: small tags and cut ends)
VHH: B9 VHH with R56S, R76N, A87P, R102Y
binding (牛血清白蛋白(BSA) (牛 (bovine)) [1]): binds | binding (牛血清白蛋白(BSA) (牛 (bovine)) [2]): binds

B12: 1A2 (VHH, not shown: small tags and cut ends)
VHH: QVQLQESGGGSVQAGGSLRLSCTASGFTSDDSDMGWYRQAPGNECELVSVVRSDGTTYYPPSVRGRFTISQDNAKNTVSLQMNSLKPEDTAVYYCAADPSPYYRDYGAPGCGFNYWGQGTQVTVSS
binding (牛血清白蛋白(BSA) (牛 (bovine)) [1]): binds | binding (牛血清白蛋白(BSA) (牛 (bovine)) [2]): binds

B13: 2C10 (VHH, not shown: small tags and cut ends)
VHH: QVQLQESGGGSVQAGGSLRLSCVASGYTFSSDCMGWFRQAPGKKREGVAAIYTSGSSTYYADSVKGRFTISRDNAKNTVYLEMNSLKPEDTAIYYCAARRSSGGYCYIGSDFQISLYNNWGQGTQVTVSS
binding (牛血清白蛋白(BSA) (牛 (bovine)) [1]): binds | binding (牛血清白蛋白(BSA) (牛 (bovine)) [2]): binds

B14: 2D5 (VHH, not shown: small tags and cut ends)
VHH: QVQLQESGGGSVQAGGSLRLSCTASGFTPDGSDMGWYRQAPGNECELVSVIRSGGSTYYTDSVKGRFTISRDNAKNTLYLQMNSLKPEDTAVYYCAADPSRYYSDYGAPGCGFHYWGQGTQVTVSS
binding (牛血清白蛋白(BSA) (牛 (bovine)) [1]): binds | binding (牛血清白蛋白(BSA) (牛 (bovine)) [2]): binds

B18: 1C9 (VHH, not shown: small tags and cut ends)
VHH: QVQLQESGGGSVRAGGSLRLSCAASGYTSSSYCMGWFRQAPGKEREGVAAIYTDTGGGSTYYADSVKGRFTISQGNAKNTLYLQMNSLKPEDTAMYYCAAVERRGGSCYTRYKYAAFAYWGQGTQVTVSS
binding (牛血清白蛋白(BSA) (牛 (bovine)) [1]): binds | binding (牛血清白蛋白(BSA) (牛 (bovine)) [2]): binds

B19: 2C6 (VHH, not shown: small tags and cut ends)
VHH: QVQLQESGGGSVQAGGSLRLSCAASGSADRRNYVAWFRQAPGKEREGVAALGIVSGFTHYADSVKGRFTISQDNARNTVYLQMNRMIPEDTAMYYCAADSRTRVLISWFLNPDKYNYWGRGTQVTVSS
binding (牛血清白蛋白(BSA) (牛 (bovine)) [1]): binds | binding (牛血清白蛋白(BSA) (牛 (bovine)) [2]): binds

B22: 1C10 (VHH, not shown: small tags and cut ends)
VHH: QVQLQESGGGSVQAGGSLRLSCAVSGLTYSSNCMGWFRQAPGKEREGVAAIYNGGNTYYADSVKGRFTISRDNAKNTVYLEMNSLKPEDTAIYYCAARRSSGGYCYIGSDFQISLFNNWGQGTQVTVSS
binding (牛血清白蛋白(BSA) (牛 (bovine)) [1]): binds | binding (牛血清白蛋白(BSA) (牛 (bovine)) [2]): binds

B23: 1B2 (VHH, not shown: small tags and cut ends)
VHH: QVQLQESGGGTVQAGGSLTLSCAASGYTYNYMGWFRQAPGKEREGVAAIATSSGRAYYADSVKGRFTISQDNGKNTLHLQMNSLKPEDTAMYYCAAGSHYSGYSLSPGRYKYWGQGTQVTVSS
binding (牛血清白蛋白(BSA) (牛 (bovine)) [1]): binds | binding (牛血清白蛋白(BSA) (牛 (bovine)) [2]): binds

B24: 1C2 (VHH, not shown: small tags and cut ends)
VHH: B23 VHH with A50H, S52G, A56T, A59I, G73A, L77T, H78N, N82T, S101A, L105M
binding (牛血清白蛋白(BSA) (牛 (bovine)) [1]): binds | binding (牛血清白蛋白(BSA) (牛 (bovine)) [2]): binds

B25: 2C11 (VHH, not shown: small tags and cut ends)
VHH: B23 VHH with A48V, I49M, A50H, S52G, A59V, Q70R, G73A, L77V, L105M
binding (牛血清白蛋白(BSA) (牛 (bovine)) [1]): binds | binding (牛血清白蛋白(BSA) (牛 (bovine)) [2]): binds

B26: 1B3 (VHH, not shown: small tags and cut ends)
VHH: B23 VHH with A50S, A59V, G73A, L77T, H78Y, L105I
binding (牛血清白蛋白(BSA) (牛 (bovine)) [1]): binds | binding (牛血清白蛋白(BSA) (牛 (bovine)) [2]): binds
